Patent US20110129457A1
No constants are given. Whether binding was seen depends on the method and setting. Some binding calls cover weakened binding; strength is not graded here. Where a sequence is shown, tags or fusion partners need not be part of it. Each block holds one binder with its values, some of them ahead of it.

Chains of the proteins cited; added tags and fusions are not shown. Residues count along the entry.
UniProt Q15465, residues 25-197: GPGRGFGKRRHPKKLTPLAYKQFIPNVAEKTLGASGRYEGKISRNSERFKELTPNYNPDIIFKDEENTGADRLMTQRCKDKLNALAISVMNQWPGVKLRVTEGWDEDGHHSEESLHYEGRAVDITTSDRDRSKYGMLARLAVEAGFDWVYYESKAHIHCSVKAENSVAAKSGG

How the values were obtained:
[1] = target: Shh649 (ShhC-Cys conjugated with DyLight 649 Maleimide) (human) (UniProt Q15465); test: FACS competition: 0.33 nM Shh649 preincubated with 56 nM inhibitor, then bound to Ptch1 cells or 293 cells; the blocked partner is Ptch1
[2] = target: Shh649 (ShhC-Cys conjugated with DyLight 649 Maleimide) (human) (UniProt Q15465); test: FACS: Shh649 recruited to 293 cells (data not shown)
[3] = target: Shh649 (ShhC-Cys conjugated with DyLight 649 Maleimide) (human) (UniProt Q15465); test: FACS competition: Shh649 preincubated with protein, then Ptch1-293 cells
[4] = target: Shh649 (ShhC-Cys conjugated with DyLight 649 Maleimide) (human) (UniProt Q15465); test: FACS competition: 1 nM Shh649 preincubated with the inhibitor, then bound to Ptch1-expressing 293 cells; the blocked partner is Ptch1
[5] = target: Shh649 (ShhC-Cys conjugated with DyLight 649 Maleimide) (human) (UniProt Q15465); test: FACS: 15 nM Shh649 with 520 nM Hhip1β12 on 293 cells (Hhip1β12 sticks nonspecifically to the cells and recruits Shh649) and on Ptch1 cells

binding [1]: binds
binding [2]: binds
binding [3]: binds
binding [4]: binds
B1: Hhip1β12-Fc (Fc fusion, not shown: a dimerising Fc or GST)
chain: SNYLDQMEEYDKVEEISRKHKHNCFCIQEVVSGLRQPVGALHSGDGSQRLFILEKEGYVKILTPEGEIFKEPYLDIHKLVQSGIKGGDERGLLSLAFHPNYKKNGKLYVSYTTNQERWAIGPHDHILRVVEYTVSRKNPHQVDLRTARVFLEVAELHRKHLGGQLLFGPDGFLYIILGDGMITLDDMEEMDGLSDFTGSVLRLDVDTDMCNVPYSIPRSNPHFNSTNQPPEVFAHGLHDPGRCAVDRHPTDININLTILCSDSNGKNRSSARILQIIKGKDYESEPSLLEFKPFSNGPLVGGFVYRGCQSERLYGSYVFGDRNGNFLTLQQSPVTKQWQEKPLCLGTSGSCRGYFSGHILGFGEDELGEVYILSSSKSMTQTHNGKLYKIVDPKRPLMPEECRATVQPAQTLTSECSRLCRNGYCTPTGKCCCSPGWEGDFCRTAKCEPACRHGGVCVRPNKCLCKKGYLGPQCE

binding [1]: binds
binding [3]: binds
binding [5]: binds
binding [4]: binds
B2: Hhip1β12 (β-propeller-EGF1-EGF2, residues 193-667), C-terminal His6-tag (receptor)
chain: SNYLDQMEEYDKVEEISRKHKHNCFCIQEVVSGLRQPVGALHSGDGSQRLFILEKEGYVKILTPEGEIFKEPYLDIHKLVQSGIKGGDERGLLSLAFHPNYKKNGKLYVSYTTNQERWAIGPHDHILRVVEYTVSRKNPHQVDLRTARVFLEVAELHRKHLGGQLLFGPDGFLYIILGDGMITLDDMEEMDGLSDFTGSVLRLDVDTDMCNVPYSIPRSNPHFNSTNQPPEVFAHGLHDPGRCAVDRHPTDININLTILCSDSNGKNRSSARILQIIKGKDYESEPSLLEFKPFSNGPLVGGFVYRGCQSERLYGSYVFGDRNGNFLTLQQSPVTKQWQEKPLCLGTSGSCRGYFSGHILGFGEDELGEVYILSSSKSMTQTHNGKLYKIVDPKRPLMPEECRATVQPAQTLTSECSRLCRNGYCTPTGKCCCSPGWEGDFCRTAKCEPACRHGGVCVRPNKCLCKKGYLGPQCEHHHHHH
